## Screening data

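Luminescence from an EWS-FLI1 target-promoter (NR0B1) reporter, set against a CMV-promoter reporter, two days after silencing single genes in TC32 Ewing sarcoma cells. Each siRNA was applied at 20 nM. A z-score of the log NR0B1-over-CMV signal, less the median of siRNAs with the same seed; more negative means a stronger specific loss of the NR0B1 reporter.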

The strongest results of the screen are mostly left out here. Sequences are the guide (antisense) strand, without overhang.

UCUGUUUCGCGUGCACUUC against ATAD3C gave seed-corrected z-score 0.3917.
UCGUAGAACAUCUUAAUCU against ADI1 gave seed-corrected z-score 0.3104.
UUGUUGAUCUCCCUGCUCG against LOC645852 gave seed-corrected z-score -0.3692.
UAUGUAAGUUGAUACCACC against DDX10 gave seed-corrected z-score -0.06376.
AUAAGCACCAGAAUACCGC against CHCHD3 gave seed-corrected z-score 2.006.
UCCGUGAUUAUCUUUCUGC against ANKRD13C gave seed-corrected z-score -0.4542.
UUUUGGUGCUUUUUAAGGC against ZNF16 gave seed-corrected z-score -0.02119.
UUUGGGAUGCUUGUGUCUG against PRR25 gave seed-corrected z-score -0.01925.
UAGAGUGCAAUGCUGGUGA against DSCR4 gave seed-corrected z-score 0.07545.
UCUUCCUGAUCGUCCAUGC against CHMP3 gave seed-corrected z-score 0.1149.
UACUCCAUGGAUGCAUUUC against RPL31P45 gave seed-corrected z-score 0.393.
UUGUUCUCCACGAACAUGC against GPRC5C gave seed-corrected z-score 0.3393.
AUGACAUUGAGUAAGCUAG against LCE1C gave seed-corrected z-score 0.584.
UUUGGUACGCUCGUGUUUA against FLJ13224 gave seed-corrected z-score -1.278.
UCUGCGAUGACAACCAUCC against C19orf57 gave seed-corrected z-score 0.6943.
UGGUCUGAAACAAUGGUCU against SHROOM1 gave seed-corrected z-score -1.389.
UAUGGUGUGAUUUCCCACG against ABCA17P gave seed-corrected z-score 1.044.
UGCGCUUCCAGAAUCAUGC against ATP11A gave seed-corrected z-score 0.2622.
UCAUGGACCUGAAUACCUG against RASL11B gave seed-corrected z-score 0.1689.
UUUUGUCUACAAUUUGCUG against PPP3R1 gave seed-corrected z-score -0.1627.
ACAGUCAGAAUUACCAACC against SYCP1 gave seed-corrected z-score -0.3155.
AAGUUGAGGACGAAGGUGC against PROC gave seed-corrected z-score -0.2904.
UUAGGAGUCACCGAUCUGG against ISCA1 gave seed-corrected z-score -0.7075.
UUCUGCAAACGCAAGUUGU against PRR33 gave seed-corrected z-score -0.01484.
UUCCUAAUAAUUUCAGCAU against UBE2R2 gave seed-corrected z-score 0.02749.
UUCCGUUCACGGAUUUUCU against KIAA1671 gave seed-corrected z-score -0.2758.
UUUAUACCUCCGGUCGUUG against BPGM gave seed-corrected z-score -0.215.
UGCGGUAAAAGUCAGUGAC against EXTL3 gave seed-corrected z-score -1.298.
UUAGCAGAAAACCUCAUGG against HMGN2P24 gave seed-corrected z-score 0.6451.
UCUGCGCUGAAACAUCUUC against CCDC42 gave seed-corrected z-score 0.1217.
AUAGUUAAACUUCUCGUUC against TTBK1 gave seed-corrected z-score -1.187.
AGAAGACAAAGGUAUGUUC against TARP gave seed-corrected z-score 0.02982.
UCUGGUACUGUACUCAUGC against PNP gave seed-corrected z-score 0.3621.
UCAAUAACUGAAGCCGUUC against MLLT10 gave seed-corrected z-score 0.1898.
UUCUGGAUAACCACGCACG against RPL31P7 gave seed-corrected z-score 0.4237.
UAUAAGGUUCACGAUCUGC against MLLT3 gave seed-corrected z-score 0.8806.
UUUGUAACCGGCUGGGUGU against NRSN1 gave seed-corrected z-score -0.5255.
UUCCAUUGGAAAUAGUGCC against ADAMTS12 gave seed-corrected z-score -0.7407.
AAUCGUUCUUUCAUGAUUC against TBC1D12 gave seed-corrected z-score -0.2999.
UCUGAUUAGGUCAAAGUCC against PRKCZ gave seed-corrected z-score 0.05697.
UUCUUGCCCUCCUCGAAGC against PRSS27 gave seed-corrected z-score -0.2065.
UUGUCGAUGAACUCCAUCU against SRF gave seed-corrected z-score -0.4897.
UAUACGAACAAACGUAGUC against DSC1 gave seed-corrected z-score -0.5363.
UUAGGAUUACUGAUGAACC against DNM1L gave seed-corrected z-score 0.01687.
UUUAGUCUUAAGAAGUUGC against DBR1 gave seed-corrected z-score -0.1892.
CCAAUGCUGCUUAUUGCCC against RETN gave seed-corrected z-score 0.005997.

The first 6 entries again:

* UCUGUUUCGCGUGCACUUC against ATAD3C | seed-corrected z-score 0.3917
* UCGUAGAACAUCUUAAUCU against ADI1 | seed-corrected z-score 0.3104
* UUGUUGAUCUCCCUGCUCG against LOC645852 | seed-corrected z-score -0.3692
* UAUGUAAGUUGAUACCACC against DDX10 | seed-corrected z-score -0.06376
* AUAAGCACCAGAAUACCGC against CHCHD3 | seed-corrected z-score 2.006
* UCCGUGAUUAUCUUUCUGC against ANKRD13C | seed-corrected z-score -0.4542

From PubChem BioAssay record AID1159506 (NCATS, 2015).